Measurements published in article PMC8500230.
Results are given in words; binding and its absence hold for the method and conditions named. For some assays here: Binding can be weak; no strength is given. For some assays here: Where a sequence is shown, tags or fusion partners need not be part of it.

The chains behind the UniProt entries cited, without tags or fusion partners. Where a name states a change or a piece, a line headed by the entry shows the natural chain unless it says otherwise.
UniProt F4IWE2: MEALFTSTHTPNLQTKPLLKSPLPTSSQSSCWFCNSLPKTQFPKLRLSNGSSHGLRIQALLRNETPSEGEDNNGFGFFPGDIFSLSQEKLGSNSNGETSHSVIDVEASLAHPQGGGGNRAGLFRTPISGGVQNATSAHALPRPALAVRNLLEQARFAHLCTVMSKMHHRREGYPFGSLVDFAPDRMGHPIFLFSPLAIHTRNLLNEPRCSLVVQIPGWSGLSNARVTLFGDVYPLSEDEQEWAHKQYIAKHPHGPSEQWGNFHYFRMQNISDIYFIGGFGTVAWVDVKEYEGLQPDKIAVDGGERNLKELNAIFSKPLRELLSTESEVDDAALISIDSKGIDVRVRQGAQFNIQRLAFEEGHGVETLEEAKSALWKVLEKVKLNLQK
UniProt Q8LSZ4: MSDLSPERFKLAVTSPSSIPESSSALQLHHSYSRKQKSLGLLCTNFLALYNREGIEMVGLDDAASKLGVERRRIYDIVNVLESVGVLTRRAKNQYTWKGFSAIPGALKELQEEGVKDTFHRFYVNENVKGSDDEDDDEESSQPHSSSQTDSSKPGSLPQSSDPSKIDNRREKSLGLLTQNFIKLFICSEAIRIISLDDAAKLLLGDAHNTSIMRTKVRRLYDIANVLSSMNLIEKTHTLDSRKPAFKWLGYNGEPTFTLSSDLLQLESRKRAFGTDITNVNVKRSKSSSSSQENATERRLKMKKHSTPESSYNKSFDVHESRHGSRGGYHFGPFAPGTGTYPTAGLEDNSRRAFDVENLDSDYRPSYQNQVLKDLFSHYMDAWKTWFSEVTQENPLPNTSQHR
UniProt F4J4R5: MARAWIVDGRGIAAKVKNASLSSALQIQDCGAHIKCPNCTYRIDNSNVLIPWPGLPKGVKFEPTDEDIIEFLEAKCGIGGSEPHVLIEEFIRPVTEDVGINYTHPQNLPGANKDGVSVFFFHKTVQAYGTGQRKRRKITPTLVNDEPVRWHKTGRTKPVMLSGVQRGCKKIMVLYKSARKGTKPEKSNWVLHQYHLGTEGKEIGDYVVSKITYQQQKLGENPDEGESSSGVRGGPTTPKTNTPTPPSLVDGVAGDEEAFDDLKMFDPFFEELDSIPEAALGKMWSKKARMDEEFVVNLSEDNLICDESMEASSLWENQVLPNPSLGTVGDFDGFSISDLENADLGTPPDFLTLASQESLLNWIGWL

Assays:
Experiment in all cases: two-hybrid; yeast AH109 co-transformed with an AD-fused and a BD-fused construct; growth on TDO (-L/-W/-H) and QDO (-L/-W/-H/-Ade); mEGFP construct as auto-activation control
[1] = target: T1, RBR1 (Y2H fusion) (Arabidopsis thaliana) (UniProt Q9LKZ3)
T1 sequence: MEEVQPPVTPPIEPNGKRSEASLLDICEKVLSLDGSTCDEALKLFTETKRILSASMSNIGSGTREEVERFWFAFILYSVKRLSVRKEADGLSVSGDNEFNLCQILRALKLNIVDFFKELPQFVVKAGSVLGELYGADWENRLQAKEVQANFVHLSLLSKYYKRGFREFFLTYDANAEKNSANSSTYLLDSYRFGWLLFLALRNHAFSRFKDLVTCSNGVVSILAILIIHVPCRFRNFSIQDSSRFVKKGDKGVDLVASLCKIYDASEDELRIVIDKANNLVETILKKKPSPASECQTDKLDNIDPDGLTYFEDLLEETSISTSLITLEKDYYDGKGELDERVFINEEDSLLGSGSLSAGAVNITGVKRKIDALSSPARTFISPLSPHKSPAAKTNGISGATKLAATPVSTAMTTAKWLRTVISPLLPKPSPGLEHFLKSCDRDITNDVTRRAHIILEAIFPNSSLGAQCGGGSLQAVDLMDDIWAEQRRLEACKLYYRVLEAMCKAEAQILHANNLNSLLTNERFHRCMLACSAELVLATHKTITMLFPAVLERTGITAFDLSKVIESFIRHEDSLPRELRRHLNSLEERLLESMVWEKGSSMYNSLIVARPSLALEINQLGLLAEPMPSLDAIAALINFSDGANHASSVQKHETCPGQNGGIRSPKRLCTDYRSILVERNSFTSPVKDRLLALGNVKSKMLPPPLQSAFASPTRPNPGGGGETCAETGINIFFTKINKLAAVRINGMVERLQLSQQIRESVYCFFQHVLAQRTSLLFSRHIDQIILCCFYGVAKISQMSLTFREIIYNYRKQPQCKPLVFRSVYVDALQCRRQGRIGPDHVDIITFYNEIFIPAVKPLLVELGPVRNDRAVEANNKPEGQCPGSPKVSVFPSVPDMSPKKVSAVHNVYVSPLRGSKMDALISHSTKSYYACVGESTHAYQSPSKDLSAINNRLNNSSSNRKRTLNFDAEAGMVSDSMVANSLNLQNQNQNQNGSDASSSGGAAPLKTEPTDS

[2] = target: ONE2 (Y2H fusion) (Arabidopsis thaliana) (UniProt Q9C8K8)
[3] = target: ONE1 (Y2H fusion) (Arabidopsis thaliana) (UniProt F4IWE2)
[4] = target: T2, TCX6 (Y2H fusion) (Arabidopsis thaliana) (UniProt Q9SL70)
T2 sequence: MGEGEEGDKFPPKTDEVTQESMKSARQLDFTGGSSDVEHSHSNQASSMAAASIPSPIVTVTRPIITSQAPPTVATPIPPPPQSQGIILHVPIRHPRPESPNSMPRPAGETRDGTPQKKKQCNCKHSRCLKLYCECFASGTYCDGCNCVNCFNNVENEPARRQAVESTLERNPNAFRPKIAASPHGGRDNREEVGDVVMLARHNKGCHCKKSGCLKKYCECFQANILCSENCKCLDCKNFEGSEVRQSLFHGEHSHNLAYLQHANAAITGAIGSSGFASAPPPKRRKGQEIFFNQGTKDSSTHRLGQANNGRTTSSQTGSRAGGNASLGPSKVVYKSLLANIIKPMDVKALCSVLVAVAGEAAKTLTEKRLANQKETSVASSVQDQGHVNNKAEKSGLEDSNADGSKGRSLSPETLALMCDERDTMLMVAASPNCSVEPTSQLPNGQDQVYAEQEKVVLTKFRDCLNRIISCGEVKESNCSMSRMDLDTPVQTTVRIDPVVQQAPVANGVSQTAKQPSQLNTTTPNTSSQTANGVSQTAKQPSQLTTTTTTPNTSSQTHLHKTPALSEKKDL

[5] = target: T3, MYB3R3 (Y2H fusion) (Arabidopsis thaliana) (UniProt Q8H1P9)
T3 sequence: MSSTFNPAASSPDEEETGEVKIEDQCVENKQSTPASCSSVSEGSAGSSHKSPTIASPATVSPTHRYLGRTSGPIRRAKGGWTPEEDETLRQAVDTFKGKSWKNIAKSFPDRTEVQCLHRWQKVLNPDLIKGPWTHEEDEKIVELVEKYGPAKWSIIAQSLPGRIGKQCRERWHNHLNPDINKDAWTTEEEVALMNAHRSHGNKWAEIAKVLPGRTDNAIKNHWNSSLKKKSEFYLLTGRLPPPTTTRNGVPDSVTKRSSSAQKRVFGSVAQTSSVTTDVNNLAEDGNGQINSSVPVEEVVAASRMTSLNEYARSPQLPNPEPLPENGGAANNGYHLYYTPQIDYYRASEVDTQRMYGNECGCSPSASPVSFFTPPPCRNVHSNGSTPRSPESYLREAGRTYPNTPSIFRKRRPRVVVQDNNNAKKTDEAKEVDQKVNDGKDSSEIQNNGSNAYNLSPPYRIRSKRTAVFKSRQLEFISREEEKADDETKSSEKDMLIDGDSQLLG

[6] = target: E2FE (DEL1) (Y2H fusion) (Arabidopsis thaliana) (UniProt Q8LSZ4)

AD-NAC044 (Y2H fusion) (from UniProt F4J4R5)
binding [1]: binds
binding [2]: no binding
binding [3]: no binding

TCX6^AxAxA (Y2H fusion) (from UniProt Q9SL70)
binding [1]: no binding
binding [4]: binds

ONE1 (Y2H fusion) (from UniProt F4IWE2)
binding [2]: binds
binding [5]: binds
binding [6]: binds

LIN52A (Y2H fusion) (Arabidopsis thaliana)
binding [1]: no binding

NAC044 AxAxA mutant (Y2H fusion) (Arabidopsis thaliana)
binding [1]: no binding

LIN52B (Y2H fusion) (Arabidopsis thaliana)
binding [1]: no binding
